The other results are listed elsewhere or left out. Some of these compounds have results that are not shown, active ones among them.
Assay: reversal of MRP1-mediated doxorubicin resistance, primary screen, H69AR cells, doxorubicin co-treatment (AID 602)
Conditions: H69AR cells + 2 uM doxorubicin, CellTiter-Glo, 72 h; measured here: viability with 2 uM doxorubicin; at 10 µM; stronger effect = lower value

SMILES | viability [%]
O=C(OC1CN2CCC1CC2)C(CO)(c1ccccc1)c1ccccc1 (configuration not stated) | 88.2
CN(C)c1cccc(C(=O)NCC2(N(C)C)CCCCC2)c1 | 95.2
